Data source: PubChem BioAssay AID504791 (Drosophila RNAi Screening Center, 2011)
The screen tested about 23,000 reagents; shown is a random part of those with a known target gene and a result. In the full data, 199 (0.86%) got an active call. 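Plate-scaled ratios behind the calls are not deposited; printed light signals are raw; many rows marked increased or decreased are still called inactive.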 Unmarked entries are inactive. The numbers tell different reagents against one gene apart.

- Screen: 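Genes whose knock-down strengthens or weakens small-RNA reporter silencing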 (primary screen)
- System: Drosophila S2-derived reporter cells
- Reagents: long dsRNA against Drosophila genes, about 150-250 ng dsRNA per well (siRNA assay); about 80-120 ng (miRNA assay)
- Time to read-out: about 5 days (siRNA assay); about 4 days (miRNA assay)
- Treatment: copper sulfate induction of reporters: 25 µM (siRNA assay); 200 mM stated (miRNA assay), 1-2 days before reading
- Read-out: 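Dual luciferase assay: Renilla to firefly signal ratio in each well, scaled to the mean ratio of its plate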
- Direction: siRNA reporter hit score: higher = 3 marks a strong hit with raised ratio; -3 a strong hit with lowered ratio
- Hit rule: 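First-pass picks had plate-scaled ratios over 1.5 for the siRNA assay, over 1.6 for the miRNA assay, or under 0.6; two distinct dsRNAs had to score alike on retest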

| Target gene | reagent | siRNA reporter hit score | miRNA reporter change | stable assay Renilla, run 1 (luminescence) | stable assay firefly, run 1 (luminescence) |
| --- | --- | --- | --- | --- | --- |
| CG34323 | 1 | – | – | 4799 | 4.05e5 |
| roh (reduction of Rh1) | 1 | – | – | 4143 | 4.64e5 |
| retinin | 1 | – | – | 8775 | 3.73e5 |
| Spn42Da (Serpin 42Da) | 1 | – | – | 7314 | 4.29e5 |
| noi (noisette) | 1 | – | – | 10270 | 8.32e5 |
| noi (noisette) | 2 | – | reporter ratio lowered past the hit cutoff (active) | – | – |
| HERC2 (HECT and RLD domain containing protein 2) | 1 | – | – | 5947 | 3.88e5 |
| Ilp7 (Insulin-like peptide 7) | 1 | – | – | 6852 | 4.92e5 |
| Atu (Another transcription unit) | 1 | -3 | – | 6279 | 3.71e5 |
| CG13616 | 1 | – | – | 7674 | 3.48e5 |
| tral (trailer hitch) | 1 | – | – | 7048 | 2.48e5 |
| CG13282 | 1 | – | – | 8038 | 3.91e5 |
| CG13244 | 1 | – | – | 8538 | 4.14e5 |
| Sirt7 (Sirtuin 7) | 1 | – | – | 8717 | 6.26e5 |
| dwg (deformed wings) | 1 | – | – | 7787 | 4.67e5 |
| CG13678 | 1 | – | – | 4120 | 3.64e5 |
| unc-45 (uncoordinated 45) | 1 | – | – | 6891 | 4.63e5 |
| ttm2 (tiny tim 2) | 1 | – | – | 6063 | 3.44e5 |
| CG12730 | 1 | – | – | 5676 | 3.54e5 |
| CG32221 | 1 | – | – | 6079 | 3.00e5 |
| CG33523 | 1 | – | – | 5754 | 5.16e5 |
| CG33523 | 2 | – | – | 9107 | 5.08e5 |
| Cdc16 (Cell division cycle 16) | 1 | – | – | 6471 | 2.89e5 |
| mon2 (monensin sensitivity 2) | 1 | – | – | 8031 | 3.28e5 |
| RhoBTB (Rho-related BTB domain containing) | 1 | 3 | – | 7528 | 3.05e5 |
| Sh3beta | 1 | – | – | 7586 | 3.88e5 |
| Sh3beta | 2 | – | – | 8202 | 3.84e5 |
| CalpA (Calpain-A) | 1 | – | – | 6315 | 2.80e5 |
| CG15922 | 1 | – | – | 6554 | 4.76e5 |

Reformatted: entries from further up
Atu (Another transcription unit): siRNA reporter hit score = -3; stable assay Renilla, run 1 (luminescence) = 6279; stable assay firefly, run 1 (luminescence) = 3.71e5
CG13616: stable assay Renilla, run 1 (luminescence) = 7674; stable assay firefly, run 1 (luminescence) = 3.48e5
tral (trailer hitch): stable assay Renilla, run 1 (luminescence) = 7048; stable assay firefly, run 1 (luminescence) = 2.48e5
CG13282: stable assay Renilla, run 1 (luminescence) = 8038; stable assay firefly, run 1 (luminescence) = 3.91e5
CG13244: stable assay Renilla, run 1 (luminescence) = 8538; stable assay firefly, run 1 (luminescence) = 4.14e5
Sirt7 (Sirtuin 7): stable assay Renilla, run 1 (luminescence) = 8717; stable assay firefly, run 1 (luminescence) = 6.26e5
dwg (deformed wings): stable assay Renilla, run 1 (luminescence) = 7787; stable assay firefly, run 1 (luminescence) = 4.67e5
CG13678: stable assay Renilla, run 1 (luminescence) = 4120; stable assay firefly, run 1 (luminescence) = 3.64e5
unc-45 (uncoordinated 45): stable assay Renilla, run 1 (luminescence) = 6891; stable assay firefly, run 1 (luminescence) = 4.63e5
ttm2 (tiny tim 2): stable assay Renilla, run 1 (luminescence) = 6063; stable assay firefly, run 1 (luminescence) = 3.44e5
CG12730: stable assay Renilla, run 1 (luminescence) = 5676; stable assay firefly, run 1 (luminescence) = 3.54e5
CG32221: stable assay Renilla, run 1 (luminescence) = 6079; stable assay firefly, run 1 (luminescence) = 3.00e5

The list goes on:
| Target gene | reagent | siRNA reporter hit score | miRNA reporter change | stable assay Renilla, run 1 (luminescence) | stable assay firefly, run 1 (luminescence) |
| --- | --- | --- | --- | --- | --- |
| Sur-8 | 1 | – | – | 6264 | 3.66e5 |
| BicD (Bicaudal D) | 1 | – | – | 80906 | 2.40e6 |
| CG17570 | 1 | – | – | 6126 | 3.82e5 |
| CG17570 | 2 | – | – | 6830 | 4.05e5 |
| CG34357 | 1 | – | – | 7963 | 3.38e5 |
| CG34357 | 2 | – | – | 5350 | 2.38e5 |
| CG34357 | 3 | – | – | 6662 | 3.32e5 |
| CG34357 | 4 | – | – | 3976 | 2.93e5 |
| Grd (Glycine receptor) | 1 | – | – | 7694 | 3.24e5 |
| Polr3D (RNA polymerase III subunit D) | 1 | – | – | 7260 | 3.50e5 |
| spn-D (spindle D) | 1 | – | – | 3851 | 4.32e5 |
| Sld5 | 1 | – | – | 7699 | 3.70e5 |
| Pif1 (Pif1 DNA helicase) | 1 | – | – | 18692 | 2.08e5 |
| CG32945 | 1 | – | – | 5384 | 3.65e5 |
| CG11630 | 1 | – | – | 7418 | 3.68e5 |
| CG14262 | 1 | – | – | 5575 | 3.24e5 |
| CG18336 | 1 | – | – | 6563 | 3.65e5 |
| CG15115 | 1 | – | – | 4043 | 3.37e5 |
| thoc6 | 1 | – | – | 7019 | 3.70e5 |
| Ote (Otefin) | 1 | – | – | 8835 | 2.86e5 |
| CG8483 | 1 | – | – | 8293 | 4.25e5 |
| Lamtor1 (Late endosomal/lysosomal adaptor, MAPK and MTOR activator 1) | 1 | – | – | 7602 | 4.49e5 |
| Vsp37A (Vacuolar protein sorting 37A) | 1 | – | – | 6275 | 3.82e5 |
| Hrs (Hepatocyte growth factor regulated tyrosine kinase substrate) | 1 | – | – | 11264 | 8.42e5 |
| CG34353 | 1 | – | – | 7431 | 6.33e5 |
| CG34353 | 2 | – | – | 5936 | 5.73e5 |
| CG34353 | 3 | – | – | 6018 | 4.46e5 |
| CG34353 | 4 | – | – | 5870 | 4.19e5 |
| CG34353 | 5 | – | reporter ratio lowered past the hit cutoff | 4512 | 3.99e5 |
| CG5355 | 1 | – | – | 9556 | 9.61e5 |
| RpL9 (Ribosomal protein L9) | 1 | – | – | 9067 | 3.41e5 |
| CG32511 (retired record) | 1 | – | – | 4672 | 4.95e5 |
| CG8854 | 1 | – | – | 8211 | 3.25e5 |
| Gas8 (Growth arrest specific protein 8) | 1 | – | – | 7802 | 7.03e5 |
| CG8562 | 1 | – | – | 6387 | 3.90e5 |
| Dfd (Deformed) | 1 | – | – | 6539 | 3.79e5 |
| CG31861 | 1 | – | – | 10215 | 6.24e5 |
| CG7272 | 1 | – | – | 7560 | 3.33e5 |
| Aprt (Adenine phosphoribosyltransferase) | 1 | – | – | 5842 | 4.58e5 |
| CG11815 | 1 | – | – | 5191 | 4.12e5 |
| CG14958 | 1 | – | – | 7790 | 4.52e5 |
| bgcn (benign gonial cell neoplasm) | 1 | – | – | 5495 | 2.97e5 |
| bgcn (benign gonial cell neoplasm) | 2 | – | – | 6042 | 3.15e5 |
| RpL35A (Ribosomal protein L35A) | 1 | – | – | 7050 | 3.59e5 |
| CG15203 | 1 | – | – | 5079 | 2.96e5 |
| CG5946 | 1 | – | – | 7451 | 4.51e5 |
| CG42566 | 1 | – | – | 5196 | 3.81e5 |
| Muc96D (Mucin 96D) | 1 | – | – | 5938 | 4.64e5 |
| Muc96D (Mucin 96D) | 2 | – | – | 7756 | 4.02e5 |
| Muc96D (Mucin 96D) | 3 | – | – | 4271 | 2.90e5 |
| CG7140 | 1 | – | – | 7590 | 4.25e5 |
| dpr15 (defective proboscis extension response 15) | 1 | – | – | 4955 | 5.23e5 |
| dpr15 (defective proboscis extension response 15) | 2 | – | – | 5480 | 3.37e5 |
| dpr15 (defective proboscis extension response 15) | 3 | – | – | 5960 | 3.49e5 |
